Laboratory results from doi:10.1101/2022.09.26.509608.
No constants are given. Whether binding was seen depends on the method and setting. For some of these results: Binding seen in cells or lysates may run through a third protein. Some entries that bind do so weakly or less than the wild type. For some of these results: Where a sequence is shown, tags or fusion partners need not be part of it.

Amino acid sequences for entries named in this document (tags omitted). A change or cut given only in a name is not applied to a line headed by its entry.
UniProt Q969H0: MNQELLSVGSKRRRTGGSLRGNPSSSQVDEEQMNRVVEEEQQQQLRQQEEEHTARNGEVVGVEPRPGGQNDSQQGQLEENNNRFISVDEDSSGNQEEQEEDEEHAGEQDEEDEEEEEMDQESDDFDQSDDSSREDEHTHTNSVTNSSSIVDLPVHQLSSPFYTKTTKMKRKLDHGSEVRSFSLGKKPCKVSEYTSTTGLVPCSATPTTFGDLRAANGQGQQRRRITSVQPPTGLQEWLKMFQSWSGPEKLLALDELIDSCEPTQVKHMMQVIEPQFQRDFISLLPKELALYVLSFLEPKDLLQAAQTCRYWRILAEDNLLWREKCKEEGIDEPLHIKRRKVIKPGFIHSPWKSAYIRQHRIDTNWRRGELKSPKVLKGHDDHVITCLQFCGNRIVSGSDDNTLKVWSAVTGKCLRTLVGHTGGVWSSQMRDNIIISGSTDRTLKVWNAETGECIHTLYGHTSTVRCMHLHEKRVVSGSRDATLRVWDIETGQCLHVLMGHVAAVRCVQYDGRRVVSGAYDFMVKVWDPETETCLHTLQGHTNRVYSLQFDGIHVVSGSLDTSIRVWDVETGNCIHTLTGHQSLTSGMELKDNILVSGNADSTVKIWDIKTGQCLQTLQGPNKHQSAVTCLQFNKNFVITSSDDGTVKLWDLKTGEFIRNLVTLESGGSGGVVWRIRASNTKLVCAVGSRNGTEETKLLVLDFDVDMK
UniProt Q13619: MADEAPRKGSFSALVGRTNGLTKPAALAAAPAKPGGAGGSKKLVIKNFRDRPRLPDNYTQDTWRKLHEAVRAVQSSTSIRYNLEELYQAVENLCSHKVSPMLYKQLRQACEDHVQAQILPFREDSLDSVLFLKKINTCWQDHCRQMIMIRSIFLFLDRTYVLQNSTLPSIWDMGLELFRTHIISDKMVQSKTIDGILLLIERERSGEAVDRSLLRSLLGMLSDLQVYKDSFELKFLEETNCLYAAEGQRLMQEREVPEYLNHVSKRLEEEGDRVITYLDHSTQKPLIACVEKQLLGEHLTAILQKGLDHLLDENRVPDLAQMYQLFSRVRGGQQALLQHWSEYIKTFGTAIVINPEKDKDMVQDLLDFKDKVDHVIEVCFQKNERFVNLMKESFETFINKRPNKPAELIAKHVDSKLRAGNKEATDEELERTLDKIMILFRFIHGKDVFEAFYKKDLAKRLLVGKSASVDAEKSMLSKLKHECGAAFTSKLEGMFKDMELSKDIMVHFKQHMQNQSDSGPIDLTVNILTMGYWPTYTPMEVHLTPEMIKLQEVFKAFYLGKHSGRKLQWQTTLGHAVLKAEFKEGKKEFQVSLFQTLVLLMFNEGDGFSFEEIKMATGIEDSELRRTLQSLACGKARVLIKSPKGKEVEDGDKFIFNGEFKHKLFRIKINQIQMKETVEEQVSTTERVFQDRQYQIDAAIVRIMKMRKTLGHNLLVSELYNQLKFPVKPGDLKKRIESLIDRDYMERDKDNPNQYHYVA

What was measured:
[1] = molecular target: T1, FITC-CCNL1^321-332 peptide phosphorylated at both T325 and S329 (UniProt Q9UK58); experiment: fluorescence polarisation
T1 sequence (peptide, phosphothreonine at T325; phosphoserine at S329; FITC-conjugated): NPDGTPALSTLG

FLAG-CCNL1 (HPAF-II) = molecular target: T2, FLAG-CCNL1 (HPAF-II) (UniProt Q9UK58); experiment: co-IP
T2 sequence: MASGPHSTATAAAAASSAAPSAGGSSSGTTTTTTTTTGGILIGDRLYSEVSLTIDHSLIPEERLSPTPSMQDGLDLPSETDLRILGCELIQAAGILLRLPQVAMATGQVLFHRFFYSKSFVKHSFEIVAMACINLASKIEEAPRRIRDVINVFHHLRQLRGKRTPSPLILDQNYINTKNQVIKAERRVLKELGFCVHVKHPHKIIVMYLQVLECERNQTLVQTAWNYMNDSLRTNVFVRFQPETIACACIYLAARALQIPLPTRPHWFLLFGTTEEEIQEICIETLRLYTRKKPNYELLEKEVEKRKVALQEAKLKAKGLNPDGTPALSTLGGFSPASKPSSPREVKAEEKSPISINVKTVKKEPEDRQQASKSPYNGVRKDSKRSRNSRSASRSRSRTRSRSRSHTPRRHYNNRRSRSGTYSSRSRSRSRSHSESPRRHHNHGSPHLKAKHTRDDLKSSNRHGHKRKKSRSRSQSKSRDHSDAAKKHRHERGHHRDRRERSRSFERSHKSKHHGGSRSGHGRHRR

FLAG-CCNL1 (HEK293T) = molecular target: T3, FLAG-CCNL1 (HEK293T) (UniProt Q9UK58); experiment: co-IP
T3 sequence: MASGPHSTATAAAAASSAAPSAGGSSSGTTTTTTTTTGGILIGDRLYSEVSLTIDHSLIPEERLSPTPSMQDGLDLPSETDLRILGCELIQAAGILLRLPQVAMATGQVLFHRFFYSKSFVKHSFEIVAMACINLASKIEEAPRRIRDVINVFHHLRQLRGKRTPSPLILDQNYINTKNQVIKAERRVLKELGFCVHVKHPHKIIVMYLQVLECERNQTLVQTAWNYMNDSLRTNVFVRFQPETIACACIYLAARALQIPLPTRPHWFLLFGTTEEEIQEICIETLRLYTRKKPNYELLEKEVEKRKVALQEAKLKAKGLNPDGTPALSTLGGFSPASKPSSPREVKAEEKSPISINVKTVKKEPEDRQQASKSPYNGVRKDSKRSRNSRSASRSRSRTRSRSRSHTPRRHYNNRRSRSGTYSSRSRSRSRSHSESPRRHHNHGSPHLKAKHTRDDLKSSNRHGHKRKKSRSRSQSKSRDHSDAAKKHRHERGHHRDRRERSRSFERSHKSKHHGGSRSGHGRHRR

FLAG-FBXW7 (human) = FLAG-FBXW7 (human) (UniProt Q969H0); experiment: co-IP

“Skp1-FBXW7^263-707 complex (from UniProt Q969H0 263-707; P63208 1-163)” was tested. Which binding [1] did it give?
Its binding is “binds”.

For “endogenous CUL4A (from UniProt Q13619 1-759)”, which binding (FLAG-CCNL1 (HPAF-II)) is on record?
Its binding is “binds”.

With “endogenous FBXW7 (from UniProt Q969H0 1-707)” as the molecule, how does the binding (FLAG-CCNL1 (HEK293T)) read?
Its binding is “binds”.

B1: endogenous CCNL1 (protein, UniProt Q9UK58 1-526)
chain: MASGPHSTATAAAAASSAAPSAGGSSSGTTTTTTTTTGGILIGDRLYSEVSLTIDHSLIPEERLSPTPSMQDGLDLPSETDLRILGCELIQAAGILLRLPQVAMATGQVLFHRFFYSKSFVKHSFEIVAMACINLASKIEEAPRRIRDVINVFHHLRQLRGKRTPSPLILDQNYINTKNQVIKAERRVLKELGFCVHVKHPHKIIVMYLQVLECERNQTLVQTAWNYMNDSLRTNVFVRFQPETIACACIYLAARALQIPLPTRPHWFLLFGTTEEEIQEICIETLRLYTRKKPNYELLEKEVEKRKVALQEAKLKAKGLNPDGTPALSTLGGFSPASKPSSPREVKAEEKSPISINVKTVKKEPEDRQQASKSPYNGVRKDSKRSRNSRSASRSRSRTRSRSRSHTPRRHYNNRRSRSGTYSSRSRSRSRSHSESPRRHHNHGSPHLKAKHTRDDLKSSNRHGHKRKKSRSRSQSKSRDHSDAAKKHRHERGHHRDRRERSRSFERSHKSKHHGGSRSGHGRHRR
How did the binding (FLAG-FBXW7 (human)) turn out when B1 was run?
The binding was “binds”.
